Measurements from publication PMC1948018 (Retrovirology, 2007).

Tested on: HIV-1p256
Experiment: microbe, parasite or virus in culture
Assay type: cell-based
Details: Human immunodeficiency virus 1, HeLa37, 40 h, read-out: IC50 of inhibition of HIV in HeLa 37 cells
Description: Short-term, single hit infectivity studies were performed as previously described. HeLa37 cells were plated in a 48-well tray and triplicate wells were infected with a dual-tropic HIV-1p256 and serial dilutions of P-TEFb inhibitor for 40 hours. The cells were fixed with 75% acetone/25% H2O and immunostained for HIV-1 antigens using human anti-HIV serum (a gift from Dr. Jack Stapleton, Univ. of Iowa) and HRP-conjugated goat anti-human IgG followed by staining with 3-amino-9-ethylcarbazole (AEC). The HIV-1 antigen-positive cells were counted. Experiments were repeated at least three times with each drug concentration in triplicate.

SMILES: CC[C@H](CO)Nc1nc(NCc2ccccc2)c2ncn(C(C)C)c2n1 [Seliciclib]
- IC50: 3 µM
